Data on one molecule can be found in paper PMC6537752, “Molecular characterization of CHAD domains as inorganic polyphosphate-binding modules” (Life Science Alliance, 2019).

No constants are given. Whether binding was seen depends on the method and setting.

This experiment addresses SsCHAD (CHAD domain–containing protein from Sulfolobus solfataricus) (Sulfolobus solfataricus) (UniProt Q97YW1). As to the kind of experiment: SEC; analytical size-exclusion chromatography, Superdex 200 Increase 10/300 GL, buffer A (50 mM PBS, pH 7.5, 500 mM NaCl), 500 μl of protein at 0.5 mg/ml, no polyP; both purified.

B1: SsCHAD (CHAD domain–containing protein from Sulfolobus solfataricus) (protein, UniProt Q97YW1 1-211)
chain: MTISQVKDYLNLQLKKAIQINGIGVEEIHDMRVAVRKYFDVLYAIHPVYENVECLFLAKEAIKRLGKVRDMDICEIANGERTKLAIRALKDVRELQVCFVNDKIYGVRLTIYNRILSSLHQIQDITDFHELRKNIRVTRNLVEALGYDNTEIKALAKKMGDIRDEILKMRCRGLTPPDINIIQYKEEAKRVILKIIASQEEFHHFKIEDRY
Turning to B1, the binding result is “no binding (tested: 0.5 mg/ml)”.
